Assay results: PubChem BioAssay AID540256 (National Center for Advancing Translational Sciences (NCATS), 2011)
Hit rate of the full screen: of about 300,000 compounds, about 3,700 (1.2%) were called active. The inconclusive results got no clear call from the source; some entries with a clear call stand among them for comparison. Calls follow the shape of the full dose curve; tested in HEK293 cells. Where the call is inconclusive, the potency comes from a doubtful curve fit.
% is scaled to controls: 0 for no effect and ±100 for the full control effect; potency is read from the fitted curve at half-maximal effect.

Experiment: qHTS for Inhibitors of binding or entry into cells for Lassa Virus; also: nearly all actives have a fitted effect of over 50% in size
Details: Lassa virus pseudotype entry inhibition, cell reporter; activity change, negative = inhibition: at 37.9 µM (top of the series) unless noted
In the case of Cc1ccc(S(=O)(=O)NC(=O)NC(C)Cc2ccccc2)cc1 (centres undefined), the activity change, negative = inhibition is reported as inconclusive: 14% [activator].
For O=C(Cc1cccs1)Nc1nc(-c2ccc(F)c(F)c2)cs1, the Potency was inconclusive: 1.78 µM [inhibitor, full curve, poor fit].
With CCOC(=O)C1C2C=CC3(CN(Cc4ccco4)C(=O)C13)O2 (centres undefined) the Potency was “inactive”.
With O=C(CN(C(=O)c1csnn1)c1ccc(Cl)cc1)NCCc1ccccc1 the Potency was “inactive”.
With CCn1cnc2cc(NS(=O)(=O)c3ccc(OC)c(OC)c3)ccc21 the Potency was inconclusive: 3.55 µM [activator, partial curve, poor fit].
With CCOC(=O)c1cc(-c2ccc(F)cc2)n(CCC(=O)NC2CCCCC2)c1C the Potency was “inactive”.
In the case of O=C(CCN1CCC(c2ccccc2)C1)c1cccs1 (centres undefined), the Potency is reported as inconclusive: 25.9 µM [inhibitor, single point].
In the case of Nc1c(C(=O)NCc2ccccc2)nnn1Cc1cccc(Br)c1, the Potency is reported as inconclusive: 1.12 µM [inhibitor, partial curve, poor fit].
In the case of CN(Cc1cnc2nc(N)nc(N)c2n1)c1ccc(C(=O)NC(CCC(=O)O)C(=O)O)cc1 (centres undefined), the Potency is reported as inconclusive: 0.447 µM [inhibitor, full curve, poor fit].
In the case of Nc1c(C(=O)Nc2ccc(Br)cc2)sc2nc(-c3ccncc3)ccc12, the Potency is reported as “inactive”.
In the case of Cc1ccc(Nc2nnc(SCC(=O)Nc3cccc(S(=O)(=O)NC4=NCCCCC4)c3)s2)c(C)c1, the Potency is reported as inconclusive: 11.2 µM [inhibitor, partial curve, poor fit].
For O=C(CNC(=O)c1ccc(Cl)cc1)OCc1cc(=O)n2nc(C3CCCCC3)sc2n1, the Potency was “inactive”.
With N#Cc1cc(Sc2ccccn2)c([N+](=O)[O-])cc1C#N the Potency was inconclusive: 12.6 µM [inhibitor, partial curve].
In the case of CCCCOC(=O)Cn1c(-c2ccccc2)nc2ccccc2c1=O, the Potency is reported as “inactive”.
In the case of O=C(COc1ccccc1)Nc1nnc(COc2ccccc2)s1, the Potency is reported as inconclusive: 35.5 µM [inhibitor, single point].
With O=C(NNc1nc2cc3c(cc2s1)OCO3)c1ccccc1 the Potency was inconclusive: 0.517 µM [activator, full curve, poor fit].
With COc1ccc(CNC(=S)N/N=C(/C)c2ccccc2)cc1 the Potency was active: 14.1 µM.
With COc1ccc(Nc2nc(N)nc(CSC(=S)N3CCN(c4ccccc4)CC3)n2)cc1 the Potency was inconclusive: 0.631 µM [inhibitor, partial curve, poor fit].
For COc1ccc(S(=O)(=O)N2CCCC2CNC(=O)C(=O)NCc2ccco2)cc1 (centres undefined), the Potency was “inactive”.
For CC(NC(=O)c1ccc(F)cc1)C1CC2CCC1C2 (centres undefined), the Potency was inconclusive: 35.5 µM [inhibitor, single point].
For COc1ccc2c(c1)CC/C(=C\c1ccc(OC)c(Cn3nc(C)cc3C)c1)C2=O, the Potency was inconclusive: 29.1 µM [inhibitor, single point].
With Cc1ccc(C)c(NC(=O)CCCN2C(=O)C(c3ccccc3)Oc3cccnc32)c1 (centres undefined) the Potency was inconclusive: 1.26 µM [inhibitor, full curve].
For C/C(=N\NC(=O)CNC(=O)c1ccco1)c1ccc(Br)cc1, the Potency was inconclusive: 1 µM [activator, full curve, poor fit].
For COc1ccc(CCC(=O)OCC(=O)N(CC(C)C)c2c(N)n(Cc3ccccc3)c(=O)[nH]c2=O)cc1, the Potency was inconclusive: 17.8 µM [inhibitor, single point].
In the case of Cc1ccc(NC(=O)CSc2ccc3nnc(CCNC(=O)c4ccccc4)n3n2)c(C)c1, the Potency is reported as inconclusive: 0.708 µM [inhibitor, single point].
With Cc1cccc(-n2ncc3c(NCCCn4ccnc4)ncnc32)c1 the Potency was inconclusive: 6.51 µM [activator, partial curve].
In the case of Cc1cccc(C(=O)n2c(=S)nc3ccccn32)c1, the Potency is reported as inconclusive: 0.112 µM [activator, full curve, poor fit].
With Nn1c(SCc2ccc(Br)cc2)nnc1-c1ccccn1 the Potency was “inactive”.
With CC1=CC2=NC(=O)/C(=C/c3cccn3Cc3ccccc3)C(=N)N2O1 the Potency was inconclusive: 12.6 µM [inhibitor, partial curve, poor fit].
With CCOC(=O)C1CCN(C(=O)c2cc(COc3ccc(F)cc3F)on2)CC1 the Potency was inconclusive: 25.1 µM [inhibitor, single point].
For O=C(CN(Cc1ccco1)S(=O)(=O)c1ccccc1)N/N=C/c1cccc(O)c1, the Potency was “inactive”.
With COc1ccc(O)c(/C=N/Nc2nc3ccccc3[nH]2)c1 the Potency was “inactive”.
For COc1cccc(NC(=O)c2ccc(-c3nc(COc4ccc(C)cc4)c(C)o3)cc2)c1, the Potency was inconclusive: 35.5 µM [activator, single point].
In the case of COc1ccccc1NC(CC(=O)c1ccccc1)C(=O)OCC(=O)c1ccc(C)c(C)c1 (centres undefined), the Potency is reported as inconclusive: 11.2 µM [inhibitor, single point].
For CCN(CC)c1ccc(C(=O)OCC(=O)N(C(C)C)C(C)C)cc1, the Potency was inconclusive: 35.5 µM [inhibitor, single point].
For O=C(Nc1ccc(N2CCN(C(=O)c3ccccc3)CC2)c(Cl)c1)c1ccco1, the Potency was inconclusive: 12.6 µM [inhibitor, partial curve, poor fit].
In the case of O=C(NCCC1=CCCCC1)c1ccc2c(c1)N(Cc1cccc(Cl)c1)C(=O)c1ccccc1S2(=O)=O, the Potency is reported as inconclusive: 14.1 µM [inhibitor, single point].
For CC(=O)Oc1ccc2occ(C(=O)c3cccs3)c2c1, the Potency was inconclusive: 2.59 µM [activator, single point].
With COc1ccc(/C=C/c2nc3cc(-c4ccccc4)ccc3o2)cc1O the Potency was inconclusive: 8.2 µM [inhibitor, partial curve, poor fit].
With Cn1cc(CN2CCN(c3ccccc3)CC2)c2ccccc21 the Potency was “inactive”.
For CC(C)CN(CCCNC(=O)CN1N=C(c2ccccc2)CCC1=O)CC(C)C, the Potency was “inactive”.
In the case of CCCCN(CC)Cc1ccc(CNC(=S)Nc2cccc(F)c2)o1, the Potency is reported as “inactive”.
In the case of CCOC(=O)C1=C(CN(CC)Cc2ccccc2)NC(=O)NC1c1ccc(OC(C)C)cc1 (centres undefined), the Potency is reported as inconclusive: 14.1 µM [inhibitor, single point].
In the case of Cc1c(NC(=O)CN2CCN(c3cccc(Cl)c3)CC2)c(=O)n(-c2ccccc2)n1C, the Potency is reported as “inactive”.
In the case of CSc1ccc(S(=O)(=O)Nc2ccc3c4c(cccc24)CC3)cc1, the Potency is reported as “inactive”.
With Cc1nc(C(C)(C)O)n(-c2ccccc2)n1 the Potency was “inactive”.
In the case of COc1ccc(S(=O)(=O)N(CC(=O)Nc2cccc(C)c2)c2ccc(C)cc2)cc1OC, the Potency is reported as “inactive”.
In the case of O=C(NC1=C(Nc2ccc(F)cc2)C(=O)c2ccccc2C1=O)c1ccc(Cl)cc1, the Potency is reported as inconclusive: 2.91 µM [inhibitor, partial curve].
In the case of C/C(CC(=O)Nc1ccc(F)cc1)=N\NC(=O)c1ccccn1, the Potency is reported as inconclusive: 1.26 µM [inhibitor, single point].
With Cc1ccc(C)c(NC(=O)CN(C)C(=O)c2cc3c(s2)CCCCC3)c1 the Potency was inconclusive: 5.01 µM [inhibitor, single point].
For CCN1CCN(c2nc3ccccn3c(=O)c2/C=C(\C#N)S(=O)(=O)c2ccccc2)CC1, the Potency was inconclusive: 35.5 µM [activator, partial curve, poor fit].
For CCCCN(CC)C(=O)Cc1ccccc1OC, the Potency was inconclusive: 7.08 µM [inhibitor, partial curve, poor fit].
In the case of CCN(CC)Cc1ccc(Nc2nccc(-c3cnn4ncccc34)n2)cc1, the Potency is reported as active: 0.0397 µM.
For CCOc1cc(C)c(Cl)cc1S(=O)(=O)N(C)C, the Potency was “inactive”.
With Oc1ccc(C(=S)N2CCN(c3cccc(Cl)c3)CC2)cc1 the Potency was inconclusive: 12.6 µM [inhibitor, single point].
In the case of Cc1cc(C)cc(C(=O)NCC(=O)OCC(=O)NC2CC2)c1, the Potency is reported as “inactive”.
For CC1CCCC(C)N1C(=O)c1ccc2c(c1)S(=O)(=O)c1ccccc1C2=O (centres undefined), the Potency was inconclusive: 10 µM [inhibitor, partial curve, poor fit].
With Cc1ccc(-c2nc(S(=O)(=O)c3ccc(C)cc3)c(N3CCCCCC3)o2)cc1 the Potency was inconclusive: 5.62 µM [inhibitor, single point].
With O=C(c1ccc2c(c1)OCO2)N1CCN(c2ccccc2)CC1 the Potency was “inactive”.
With O=C1CCC(C(=O)NCCN2C(=O)S/C(=C\c3cccnc3)C2=O)=NN1 the Potency was “inactive”.
With Cc1cc(/C=N\NC(=O)CC(=O)NC2CCCCC2)c(C)n1-c1cccc(Cl)c1Cl the Potency was “inactive”.
In the case of O=C(NNc1nc2c(F)cc(F)cc2s1)c1ccccc1, the Potency is reported as “inactive”.
For O=C(O)c1cc2cc(F)ccc2[nH]1, the Potency was inconclusive: 0.259 µM [activator, full curve, poor fit].
For COc1ccccc1OCCCCOc1ccccc1C(C)=O, the Potency was inconclusive: 35.5 µM [inhibitor, partial curve, poor fit].
For CCOC(=O)c1ccccc1NC(=O)CSc1cn(CC(=O)N2CCOCC2)c2ccccc12, the Potency was “inactive”.
With CN1CCN(c2cc(N3CCc4ccccc4C3)c(F)cc2[N+](=O)[O-])CC1 the Potency was inconclusive: 12.6 µM [inhibitor, single point].
In the case of Cc1ccccc1CSc1nc2cccnc2n1Cc1ccc(C(=O)NC2CC2)cc1, the Potency is reported as inconclusive: 1.41 µM [activator, full curve, poor fit].
In the case of COc1cccc(CN(C)C(=O)CNC(=O)c2ccc(-c3ccccc3)cc2)c1OC, the Potency is reported as inconclusive: 11.2 µM [inhibitor, partial curve, poor fit].
In the case of O=C(OCc1ccc([N+](=O)[O-])cc1)c1cnc(Cl)c(Cl)c1, the Potency is reported as inconclusive: 35.5 µM [inhibitor, partial curve, poor fit].
